These are yes or no findings as the source states them, for the method shown. Binding seen in cells or lysates may run through a third protein. Some entries that bind do so weakly or less than the wild type. Sequences can lack the tags named with a protein.
Molecular target: T1, Myc-Plk4 (UniProt O00444)
T1 sequence: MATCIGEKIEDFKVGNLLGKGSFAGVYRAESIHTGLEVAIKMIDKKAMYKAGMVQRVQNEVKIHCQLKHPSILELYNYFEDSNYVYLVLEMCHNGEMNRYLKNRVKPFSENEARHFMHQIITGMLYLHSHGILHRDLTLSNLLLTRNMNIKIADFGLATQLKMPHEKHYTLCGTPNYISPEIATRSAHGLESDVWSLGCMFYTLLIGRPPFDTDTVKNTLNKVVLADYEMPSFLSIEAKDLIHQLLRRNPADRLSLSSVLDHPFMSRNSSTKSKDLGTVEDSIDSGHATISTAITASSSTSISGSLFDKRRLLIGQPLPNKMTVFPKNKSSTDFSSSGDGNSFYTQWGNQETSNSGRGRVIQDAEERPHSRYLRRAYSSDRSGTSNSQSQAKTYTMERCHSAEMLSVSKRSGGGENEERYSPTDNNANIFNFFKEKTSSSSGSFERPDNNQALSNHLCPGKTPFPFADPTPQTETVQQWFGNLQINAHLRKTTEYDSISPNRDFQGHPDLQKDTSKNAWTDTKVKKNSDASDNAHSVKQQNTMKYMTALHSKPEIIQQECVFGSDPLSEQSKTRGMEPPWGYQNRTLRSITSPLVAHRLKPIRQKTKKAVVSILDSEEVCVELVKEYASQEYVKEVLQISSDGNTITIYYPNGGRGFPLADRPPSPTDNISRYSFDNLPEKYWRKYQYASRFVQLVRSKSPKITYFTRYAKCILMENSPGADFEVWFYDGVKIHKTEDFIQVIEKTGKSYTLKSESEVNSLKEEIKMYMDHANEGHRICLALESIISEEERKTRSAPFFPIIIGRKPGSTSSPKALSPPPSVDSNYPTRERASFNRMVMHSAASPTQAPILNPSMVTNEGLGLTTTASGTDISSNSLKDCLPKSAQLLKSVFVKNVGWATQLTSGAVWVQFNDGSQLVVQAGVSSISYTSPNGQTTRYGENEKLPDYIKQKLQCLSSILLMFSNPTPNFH
Experiment: co-IP; HEK293T cells co-expressing GFP-STIL with Myc-Plk4 and/or Cep131 (WT or 2A); GFP-magnetic beads; immunoblotting (Fig. 5a, b)

B1: HA-Cep131-WT (protein, UniProt Q9UPN4 1-1083)
chain: MKGTRAIGSVPERSPAGVDLSLTGLPPPVSRRPGSAATTKPIVRSVSVVTGSEQKRKVLEATGPGGSQAINNLRRSNSTTQVSQPRSGSPRPTEPTDFLMLFEGSPSGKKRPASLSTAPSEKGATWNVLDDQPRGFTLPSNARSSSALDSPAGPRRKECTVALAPNFTANNRSNKGAVGNCVTTMVHNRYTPSERAPPLKSSNQTAPSLNNIIKAATCEGSESSGFGKLPKNVSSATHSARNNTGGSTGLPRRKEVTEEEAERFIHQVNQATVTIQRWYRHQVQRRGAGAARLEHLLQAKREEQRQRSGEGTLLDLHQQKEAARRKAREEKARQARRAAIQELQQKRALRAQKASTAERGPPENPRETRVPGMRQPAQELSPTPGGTAHQALKANNTGGGLPAAGPGDRCLPTSDSSPEPQQPPEDRTQDVLAQDAAGDNLEMMAPSRGSAKSRGPLEELLHTLQLLEKEPDVLPRPRTHHRGRYAWASEVTTEDDASSLTADNLEKFGKLSAFPEPPEDGTLLSEAKLQSIMSFLDEMEKSGQDQLDSQQEGWVPEAGPGPLELGSEVSTSVMRLKLEVEEKKQAMLLLQRALAQQRDLTARRVKETEKALSRQLQRQREHYEATIQRHLAFIDQLIEDKKVLSEKCEAVVAELKQEDQRCTERVAQAQAQHELEIKKLKELMSATEKARREKWISEKTKKIKEVTVRGLEPEIQKLIARHKQEVRRLKSLHEAELLQSDERASQRCLRQAEELREQLEREKEALGQQERERARQRFQQHLEQEQWALQQQRQRLYSEVAEERERLGQQAARQRAELEELRQQLEESSSALTRALRAEFEKGREEQERRHQMELNTLKQQLELERQAWEAGRTRKEEAWLLNREQELREEIRKGRDKEIELVIHRLEADMALAKEESEKAAESRIKRLRDKYEAELSELEQSERKLQERCSELKGQLGEAEGENLRLQGLVRQKERALEDAQAVNEQLSSERSNLAQVIRQEFEDRLAASEEETRQAKAELATLQARQQLELEEVHRRVKTALARKEEAVSSLRTQHEAAVKRADHLEELLEQHRRPTPSTK
  binding: binds
